Drawing on publication PMC7819943, “Rice protein-binding microarrays: a tool to detect cis-acting elements near promoter regions in rice”, this text covers binding signal for 54 sequences.

Amino acid sequences for entries named in this document (tags omitted).
UniProt Q0JBA9, entry or part of it: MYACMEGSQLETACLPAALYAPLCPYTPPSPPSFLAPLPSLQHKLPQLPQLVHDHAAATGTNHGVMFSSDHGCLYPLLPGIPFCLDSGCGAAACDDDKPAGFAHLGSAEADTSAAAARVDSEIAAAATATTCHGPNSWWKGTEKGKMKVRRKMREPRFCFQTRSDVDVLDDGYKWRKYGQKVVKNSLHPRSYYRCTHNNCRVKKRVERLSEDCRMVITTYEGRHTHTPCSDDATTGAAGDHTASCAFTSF

Some of the results follow.

The test has as its target OsWRKY34 (Oryza sativa, UniProt Q0JBA9 1-250). Put plainly: protein-binding microarray (RPBM); PBS, 2% BSA, 51.3 ng/ul salmon testes DNA, 50 uM zinc acetate, 200 nM TF, 25 C, 1 h; high values mean tight binding. Particulars: protein: recombinant; tags: N-terminal polyhistidine and DsRed monomer fusion (pET32a); label: CyDye5-dUTP incorporated in the synthesized complementary strand; 3' TTTTT single-stranded linker to array surface; dsDNA, one strand shown. An outline of the steps: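 Binding signal is reported as fluorescence intensity per feature (arbitrary units) from an Axon 4000B scanner. Incubation used 200 nM of each Ni–NTA-purified, N-terminally polyhistidine- and DsRed-fused transcription factor from E. coli BL21-CodonPlus on a double-stranded custom Agilent array for 1 h at 25 °C, with 50 µM zinc acetate in the buffer, followed by washing.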
Turning to “TATTTTTCATTTTTTATATGTCTAATCTTCTTTCTTTTTCCGGAGTCACCTAGTGCAG”, the binding signal is 8260 fluorescence intensity (a.u.).

For the sequence “TTGGATTAGTAATGGCACGGTTCTTTGGGAAGGCTTTTATCGGAGTCACCTAGTGCAG”, the binding signal is 8340 fluorescence intensity (a.u.).

“GTGAGGTGAGGGAGGAGGGGCGGTAAACGCGGGGTGATGGCGGAGTCACCTAGTGCAG”: the binding signal was 11400 fluorescence intensity (a.u.).

On to “TTCCTCCAAGCTTCTAACCACCGTCTTGCCATTTAGGGTTCGGAGTCACCTAGTGCAG”, for which the binding signal was 9510 fluorescence intensity (a.u.).

With “TGTGGTGTTGAACTTCTTTTTTTTGTTCGAGATGACAGTTCGGAGTCACCTAGTGCAG”, the binding signal is 8200 fluorescence intensity (a.u.).

Turning to “CTGGGTGGTTTGTTGCATTGATCATCTTTATAACTTGATACGGAGTCACCTAGTGCAG”, the binding signal is 9740 fluorescence intensity (a.u.).

For the sequence “TTAGCCATCCTCTTCAGACACATGCATCAATTTTACAGGTCGGAGTCACCTAGTGCAG”, the binding signal was 11600 fluorescence intensity (a.u.).

Consider “TGTATCTTCATCTCCTGAGCTCCGCGCTATTCTCCGTCCTCGGAGTCACCTAGTGCAG”, for which the binding signal is 8500 fluorescence intensity (a.u.).

For “TTGTGAGCGCCTTTGTTTGCACTATGCTTCTCAAAAAATACGGAGTCACCTAGTGCAG”, the binding signal was 8900 fluorescence intensity (a.u.).

Take “TCCCATCTCCTCGTCCTCCGTGCCACCGCCGGCGCCTCTTCGGAGTCACCTAGTGCAG”: the binding signal was 9960 fluorescence intensity (a.u.).

In the case of “TGCCCGACTTGGCTTTCTCCTCCTCTCTCCTCCCGCAACCCGGAGTCACCTAGTGCAG”, the binding signal was 8600 fluorescence intensity (a.u.).

As to “TCTTTCATAGGGTGATTTTATTGTGTTTTAGCTTTTTAAACGGAGTCACCTAGTGCAG”, the binding signal is 9570 fluorescence intensity (a.u.).

As to “ATAACTTGCAGTACCTTGATTTAAGCCACAACAGCTTAACCGGAGTCACCTAGTGCAG”, the binding signal was 8230 fluorescence intensity (a.u.).

For the sequence “TTAAAAATTATCTTACCCTTGCACGTGCCATTTTTTTTAGCGGAGTCACCTAGTGCAG”, the binding signal was 10300 fluorescence intensity (a.u.).

For the sequence “AAAGAGTTCCGTGCACGTTGACATACATTTTTCTTGCAATCGGAGTCACCTAGTGCAG”, the binding signal is 9840 fluorescence intensity (a.u.).

For “CTATGTCTTTCCTACGGCGCAATCGAACGACAATTCCTATCGGAGTCACCTAGTGCAG”, the binding signal is 10500 fluorescence intensity (a.u.).

Take “AATCCATCCATCCATCCATGTGTACTTCCAATCCCAATCCCGGAGTCACCTAGTGCAG”: the binding signal is 10700 fluorescence intensity (a.u.).

Take “TTCGTTCGTTCCGTATGTGGTCATTCGTTCCGTATGTGGTCGGAGTCACCTAGTGCAG”: the binding signal is 8400 fluorescence intensity (a.u.).

Regarding “AAATTTTTTGGTGATTTGGTCTATTATATTATATATACTTCGGAGTCACCTAGTGCAG”, the binding signal was 8030 fluorescence intensity (a.u.).

Turning to “ACAATCGCTTATACTCGACACACACACATTTCAAGATTCCCGGAGTCACCTAGTGCAG”, the binding signal is 10000 fluorescence intensity (a.u.).

On to “TCTGTTCAGTTGTAATTGGCAACTTTACTCGTCTTATTGCCGGAGTCACCTAGTGCAG”, for which the binding signal is 8960 fluorescence intensity (a.u.).

For the sequence “GTGGGCTGGGCTTCTTCTTCGTCGTCTCATACCAATCGTGCGGAGTCACCTAGTGCAG”, the binding signal was 17100 fluorescence intensity (a.u.).

Turning to “GGTTGGAATATTCTAGTTGCATGGCGTCATTTCAGAATGTCGGAGTCACCTAGTGCAG”, the binding signal is 9580 fluorescence intensity (a.u.).

As for “TGCTCCTATAAATCCCAGCACCATGACCAAACCCATCACACGGAGTCACCTAGTGCAG”, the binding signal is 8900 fluorescence intensity (a.u.).

With “GTCCATTTTTCCTTTGCTTTTCTTTCAGGATCCTCTCTGACGGAGTCACCTAGTGCAG”, the binding signal is 8740 fluorescence intensity (a.u.).

Regarding “ATAGATGTAATCCCTACCGTCCATCTGTAGATCGCTGATCCGGAGTCACCTAGTGCAG”, the binding signal was 8800 fluorescence intensity (a.u.).

“TTCGTTGTTGGTGGTGGTGGCGGGCGGAAGATGCGGTTGCCGGAGTCACCTAGTGCAG”: the binding signal was 10000 fluorescence intensity (a.u.).

In the case of “AACATATATTTATTGCATTCATCTAGACTTTGGAGCTAGTCGGAGTCACCTAGTGCAG”, the binding signal is 8600 fluorescence intensity (a.u.).

Take “ACTCATTGGTTGCATACTTGCATTCACTCCTTGATTTTGTCGGAGTCACCTAGTGCAG”: the binding signal was 8810 fluorescence intensity (a.u.).

For the sequence “TGCCTTCAAATCTATCATGTCTTCTTTCTTTGACCTTTTACGGAGTCACCTAGTGCAG”, the binding signal is 9620 fluorescence intensity (a.u.).

As for “CACCGCAATCCGGCCGCCCAATGGCGCGCCGCCACGTCACCGGAGTCACCTAGTGCAG”, the binding signal was 8650 fluorescence intensity (a.u.).

Regarding “GTGTTTATCTCTCTCCTCCGCCTCGCTTCTCGCGTCCATCCGGAGTCACCTAGTGCAG”, the binding signal was 13500 fluorescence intensity (a.u.).

Take “CCACTACAGTGAACCTTCTACTTGACTACTTTTATACATGCGGAGTCACCTAGTGCAG”: the binding signal was 9280 fluorescence intensity (a.u.).

As for “CACCCTACGACTTTGACCGCGCGGCGCCACGGCGACTATTCGGAGTCACCTAGTGCAG”, the binding signal was 10100 fluorescence intensity (a.u.).

As to “CATCACTCTGTGCTAGCTTTTCTCGTCTCATCTGGATTGGCGGAGTCACCTAGTGCAG”, the binding signal is 9720 fluorescence intensity (a.u.).

On to “CACATCAAAGCTTTCCTACACGCAAAATTTTAACTTTTCTCGGAGTCACCTAGTGCAG”, for which the binding signal is 10500 fluorescence intensity (a.u.).

For the sequence “CCCGCCAGCCATCCCGCTGCCGTGCCGTCTCCATCTTCTACGGAGTCACCTAGTGCAG”, the binding signal was 8040 fluorescence intensity (a.u.).

Consider “TTCTGTACGTGGAAGCCCACTAATCTTGTCGTTAAGTAAGCGGAGTCACCTAGTGCAG”, for which the binding signal is 8040 fluorescence intensity (a.u.).

For “TCTCCTCTTTTTTTTTTCTTTGTTTGACCAAAAATTGGTACGGAGTCACCTAGTGCAG”, the binding signal is 11100 fluorescence intensity (a.u.).

In the case of “ATCCCATCGCATTCGCCATTTCGCCTCCACTGTGGCGGAACGGAGTCACCTAGTGCAG”, the binding signal is 8350 fluorescence intensity (a.u.).

With “TGCACAGGGGTTAGTGGGCTTGTATTTCTAAAGCTGTCTTCGGAGTCACCTAGTGCAG”, the binding signal was 8250 fluorescence intensity (a.u.).

On to “TCTCTAGCTAGCTTGCACATTCTTCATTCTTCTTGCAATCCGGAGTCACCTAGTGCAG”, for which the binding signal was 12100 fluorescence intensity (a.u.).

Take “CCTTACGTGGTACTGTACTATATATCTAGACATACATTATCGGAGTCACCTAGTGCAG”: the binding signal was 10600 fluorescence intensity (a.u.).

With “GTGTCCTCATTAACTCCAGTTCGTTCCGGTCCATGTCTCGCGGAGTCACCTAGTGCAG”, the binding signal is 12100 fluorescence intensity (a.u.).

For the sequence “TGCTTTAATTTATTTACCTTACATTTTGCTACTCACATAACGGAGTCACCTAGTGCAG”, the binding signal was 9340 fluorescence intensity (a.u.).

For “TGGTGGGTGATTTGCAGGGGCGGTGAATCGGTGATCGATGCGGAGTCACCTAGTGCAG”, the binding signal was 9270 fluorescence intensity (a.u.).

For the sequence “ATAGAAAGGACTTCACTGCCCCTGCCATGCCAACCGCAGCCGGAGTCACCTAGTGCAG”, the binding signal was 8330 fluorescence intensity (a.u.).

For “GCAAGTTTTAGCCTGATTTCCTCTGCTACCTTTCGGCAACCGGAGTCACCTAGTGCAG”, the binding signal was 9170 fluorescence intensity (a.u.).

Consider “AACCAACACTGACATCATGTTCATTCACTGTGAGGAGAGGCGGAGTCACCTAGTGCAG”, for which the binding signal is 8210 fluorescence intensity (a.u.).

As to “TTGGTTGTGTTACCCGCTGCCGCAGCTTTTCCAGCCGAACCGGAGTCACCTAGTGCAG”, the binding signal was 8580 fluorescence intensity (a.u.).

Turning to “CCTATTCGTTTGTTCCCAGTTTTTAACAGATTGTTCCTCTCGGAGTCACCTAGTGCAG”, the binding signal was 8590 fluorescence intensity (a.u.).

“TTATATGGATTCTTCTTTCAATATGCTTATTTTTAATTCCCGGAGTCACCTAGTGCAG”: the binding signal was 9000 fluorescence intensity (a.u.).

For the sequence “CCGGGTGGGGTCAGCATCTGTCAGACGGTCCCACGAGTTCCGGAGTCACCTAGTGCAG”, the binding signal was 8630 fluorescence intensity (a.u.).

Take “AGGGGTGAAAGGTTTTGGCGTGTCACATTGGATATACGGGCGGAGTCACCTAGTGCAG”: the binding signal is 9280 fluorescence intensity (a.u.).
